Reference: the supplement of paper PMC10849652
The list shows a part of the results.

Amino acid sequences for entries named in this document (tags omitted). A change or cut given only in a name is not applied to a line headed by its entry.
UniProt O95166, whole entry, looked up: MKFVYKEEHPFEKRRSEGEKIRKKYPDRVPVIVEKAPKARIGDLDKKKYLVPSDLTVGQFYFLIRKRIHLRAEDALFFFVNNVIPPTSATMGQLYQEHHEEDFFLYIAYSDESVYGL
UniProt P04062: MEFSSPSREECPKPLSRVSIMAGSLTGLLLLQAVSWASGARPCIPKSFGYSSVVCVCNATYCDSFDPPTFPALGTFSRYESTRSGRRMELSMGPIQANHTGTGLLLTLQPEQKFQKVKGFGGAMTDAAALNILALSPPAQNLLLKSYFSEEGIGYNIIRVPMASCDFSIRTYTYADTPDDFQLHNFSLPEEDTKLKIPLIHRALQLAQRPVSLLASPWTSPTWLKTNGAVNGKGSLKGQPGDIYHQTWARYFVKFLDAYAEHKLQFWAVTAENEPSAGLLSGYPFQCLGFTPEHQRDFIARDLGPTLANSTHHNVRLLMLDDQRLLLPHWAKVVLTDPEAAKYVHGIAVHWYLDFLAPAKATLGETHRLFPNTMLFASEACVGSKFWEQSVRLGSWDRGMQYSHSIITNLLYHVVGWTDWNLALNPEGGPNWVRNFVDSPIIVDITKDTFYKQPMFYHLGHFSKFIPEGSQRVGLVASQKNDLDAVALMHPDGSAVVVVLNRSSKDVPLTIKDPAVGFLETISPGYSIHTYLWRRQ
UniProt Q9BWH2: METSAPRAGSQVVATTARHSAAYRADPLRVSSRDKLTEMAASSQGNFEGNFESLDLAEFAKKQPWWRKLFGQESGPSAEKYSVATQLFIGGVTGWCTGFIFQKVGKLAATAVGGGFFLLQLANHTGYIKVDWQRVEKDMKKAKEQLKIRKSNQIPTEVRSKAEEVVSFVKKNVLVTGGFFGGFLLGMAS
UniProt Q96I24: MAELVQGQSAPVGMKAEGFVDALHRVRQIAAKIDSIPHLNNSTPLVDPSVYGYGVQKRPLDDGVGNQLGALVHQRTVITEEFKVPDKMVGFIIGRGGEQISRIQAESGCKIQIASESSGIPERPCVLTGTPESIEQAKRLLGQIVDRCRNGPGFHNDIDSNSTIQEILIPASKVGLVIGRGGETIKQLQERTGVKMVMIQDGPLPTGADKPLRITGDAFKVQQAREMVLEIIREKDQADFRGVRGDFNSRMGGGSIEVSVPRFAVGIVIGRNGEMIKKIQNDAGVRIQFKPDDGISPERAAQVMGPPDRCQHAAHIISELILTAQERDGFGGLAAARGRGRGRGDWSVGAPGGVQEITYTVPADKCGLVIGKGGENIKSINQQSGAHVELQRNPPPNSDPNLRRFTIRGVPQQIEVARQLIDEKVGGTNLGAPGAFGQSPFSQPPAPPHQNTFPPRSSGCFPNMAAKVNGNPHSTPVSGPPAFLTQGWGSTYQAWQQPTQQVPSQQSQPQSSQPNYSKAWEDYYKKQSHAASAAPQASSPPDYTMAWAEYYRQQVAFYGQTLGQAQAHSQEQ
UniProt Q13283, whole entry, looked up: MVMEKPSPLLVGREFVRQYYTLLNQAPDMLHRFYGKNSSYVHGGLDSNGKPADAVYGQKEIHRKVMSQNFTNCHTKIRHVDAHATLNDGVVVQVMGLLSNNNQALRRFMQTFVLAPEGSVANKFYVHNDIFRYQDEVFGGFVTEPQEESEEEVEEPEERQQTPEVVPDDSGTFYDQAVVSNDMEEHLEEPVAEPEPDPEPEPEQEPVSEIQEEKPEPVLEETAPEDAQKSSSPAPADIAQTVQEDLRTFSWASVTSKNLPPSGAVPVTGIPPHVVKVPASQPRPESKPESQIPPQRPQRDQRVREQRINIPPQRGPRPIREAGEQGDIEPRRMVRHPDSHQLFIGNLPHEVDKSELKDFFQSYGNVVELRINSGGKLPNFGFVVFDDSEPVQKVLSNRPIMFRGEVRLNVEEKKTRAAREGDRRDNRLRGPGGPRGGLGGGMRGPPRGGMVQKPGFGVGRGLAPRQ
UniProt Q96C23: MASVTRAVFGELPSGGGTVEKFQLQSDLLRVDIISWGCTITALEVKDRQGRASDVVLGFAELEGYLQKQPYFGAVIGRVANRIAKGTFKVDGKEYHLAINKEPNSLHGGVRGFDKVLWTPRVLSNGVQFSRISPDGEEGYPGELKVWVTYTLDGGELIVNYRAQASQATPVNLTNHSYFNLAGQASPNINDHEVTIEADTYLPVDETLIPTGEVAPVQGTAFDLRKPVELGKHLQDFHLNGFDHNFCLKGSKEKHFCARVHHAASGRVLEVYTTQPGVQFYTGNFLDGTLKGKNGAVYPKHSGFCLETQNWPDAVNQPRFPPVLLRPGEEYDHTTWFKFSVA
UniProt Q8IY81: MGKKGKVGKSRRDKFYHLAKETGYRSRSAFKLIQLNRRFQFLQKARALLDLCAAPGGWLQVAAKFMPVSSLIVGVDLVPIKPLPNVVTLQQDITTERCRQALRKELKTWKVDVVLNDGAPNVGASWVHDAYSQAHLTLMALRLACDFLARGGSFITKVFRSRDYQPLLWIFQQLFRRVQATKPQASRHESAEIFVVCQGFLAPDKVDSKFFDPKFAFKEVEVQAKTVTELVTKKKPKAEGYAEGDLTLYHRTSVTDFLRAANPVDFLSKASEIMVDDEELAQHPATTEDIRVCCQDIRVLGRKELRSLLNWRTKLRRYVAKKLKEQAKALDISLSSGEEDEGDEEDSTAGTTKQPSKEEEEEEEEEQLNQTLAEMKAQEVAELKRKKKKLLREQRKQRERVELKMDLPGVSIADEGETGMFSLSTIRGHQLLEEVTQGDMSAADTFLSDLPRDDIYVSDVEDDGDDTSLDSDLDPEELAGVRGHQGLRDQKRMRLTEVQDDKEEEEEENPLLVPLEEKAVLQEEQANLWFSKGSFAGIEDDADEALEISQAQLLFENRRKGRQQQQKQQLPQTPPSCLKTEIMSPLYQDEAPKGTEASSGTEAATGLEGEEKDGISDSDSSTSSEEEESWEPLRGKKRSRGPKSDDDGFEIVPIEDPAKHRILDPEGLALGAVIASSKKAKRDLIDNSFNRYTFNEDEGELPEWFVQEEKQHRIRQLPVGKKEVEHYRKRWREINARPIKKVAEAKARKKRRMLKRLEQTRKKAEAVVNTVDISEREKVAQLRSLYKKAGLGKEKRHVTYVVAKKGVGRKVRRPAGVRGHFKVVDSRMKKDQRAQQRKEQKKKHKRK
UniProt Q8IVP5: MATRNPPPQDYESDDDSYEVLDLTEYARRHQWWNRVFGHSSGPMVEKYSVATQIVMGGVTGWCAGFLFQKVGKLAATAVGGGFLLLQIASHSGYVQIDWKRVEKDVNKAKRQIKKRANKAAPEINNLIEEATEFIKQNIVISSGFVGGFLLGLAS
UniProt O75600: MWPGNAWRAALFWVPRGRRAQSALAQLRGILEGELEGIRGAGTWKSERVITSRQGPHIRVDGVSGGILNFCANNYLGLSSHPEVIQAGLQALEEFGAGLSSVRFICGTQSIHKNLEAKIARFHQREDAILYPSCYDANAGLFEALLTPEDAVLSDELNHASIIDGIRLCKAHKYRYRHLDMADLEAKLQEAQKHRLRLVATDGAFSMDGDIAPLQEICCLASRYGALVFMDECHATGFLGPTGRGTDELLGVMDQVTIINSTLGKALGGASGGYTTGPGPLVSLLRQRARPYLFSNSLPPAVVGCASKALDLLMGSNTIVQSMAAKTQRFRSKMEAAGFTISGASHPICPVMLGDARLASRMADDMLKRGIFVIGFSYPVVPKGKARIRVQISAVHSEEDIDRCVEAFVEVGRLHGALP
UniProt Q13069: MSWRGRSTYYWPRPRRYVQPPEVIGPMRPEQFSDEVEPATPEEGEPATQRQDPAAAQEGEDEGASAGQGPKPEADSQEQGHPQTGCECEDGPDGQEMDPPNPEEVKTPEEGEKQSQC
UniProt Q9BTY2: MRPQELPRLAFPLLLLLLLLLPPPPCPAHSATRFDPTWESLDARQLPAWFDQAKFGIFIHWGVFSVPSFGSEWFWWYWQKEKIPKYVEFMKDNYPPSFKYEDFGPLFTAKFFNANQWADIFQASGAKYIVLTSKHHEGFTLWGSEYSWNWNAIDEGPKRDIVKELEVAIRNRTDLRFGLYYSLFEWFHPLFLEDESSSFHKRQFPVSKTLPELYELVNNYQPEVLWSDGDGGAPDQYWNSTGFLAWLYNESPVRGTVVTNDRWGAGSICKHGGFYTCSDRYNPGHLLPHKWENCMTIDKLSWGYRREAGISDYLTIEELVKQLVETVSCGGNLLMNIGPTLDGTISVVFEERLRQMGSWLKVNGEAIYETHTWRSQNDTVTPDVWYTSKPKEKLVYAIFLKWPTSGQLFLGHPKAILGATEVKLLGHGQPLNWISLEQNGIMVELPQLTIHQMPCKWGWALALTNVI
UniProt P41250: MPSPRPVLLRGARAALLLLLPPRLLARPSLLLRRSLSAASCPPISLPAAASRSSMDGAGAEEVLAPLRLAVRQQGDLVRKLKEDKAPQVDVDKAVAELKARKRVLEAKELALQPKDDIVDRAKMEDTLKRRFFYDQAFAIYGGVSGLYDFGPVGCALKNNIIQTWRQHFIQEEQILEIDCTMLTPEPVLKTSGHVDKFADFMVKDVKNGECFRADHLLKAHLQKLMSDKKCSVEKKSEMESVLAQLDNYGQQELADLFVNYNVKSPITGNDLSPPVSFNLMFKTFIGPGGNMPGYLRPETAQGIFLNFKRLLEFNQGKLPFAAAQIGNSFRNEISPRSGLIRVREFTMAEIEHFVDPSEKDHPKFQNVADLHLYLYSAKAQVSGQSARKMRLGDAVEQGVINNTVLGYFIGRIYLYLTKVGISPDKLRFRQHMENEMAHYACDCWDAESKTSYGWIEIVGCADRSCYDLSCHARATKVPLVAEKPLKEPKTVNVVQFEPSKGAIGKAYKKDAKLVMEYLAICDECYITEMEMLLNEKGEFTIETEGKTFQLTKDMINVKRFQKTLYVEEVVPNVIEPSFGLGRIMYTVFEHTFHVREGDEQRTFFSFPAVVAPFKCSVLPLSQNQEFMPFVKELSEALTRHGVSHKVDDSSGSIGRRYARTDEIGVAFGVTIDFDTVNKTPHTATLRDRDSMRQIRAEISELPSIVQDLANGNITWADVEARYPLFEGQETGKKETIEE
UniProt Q969S9: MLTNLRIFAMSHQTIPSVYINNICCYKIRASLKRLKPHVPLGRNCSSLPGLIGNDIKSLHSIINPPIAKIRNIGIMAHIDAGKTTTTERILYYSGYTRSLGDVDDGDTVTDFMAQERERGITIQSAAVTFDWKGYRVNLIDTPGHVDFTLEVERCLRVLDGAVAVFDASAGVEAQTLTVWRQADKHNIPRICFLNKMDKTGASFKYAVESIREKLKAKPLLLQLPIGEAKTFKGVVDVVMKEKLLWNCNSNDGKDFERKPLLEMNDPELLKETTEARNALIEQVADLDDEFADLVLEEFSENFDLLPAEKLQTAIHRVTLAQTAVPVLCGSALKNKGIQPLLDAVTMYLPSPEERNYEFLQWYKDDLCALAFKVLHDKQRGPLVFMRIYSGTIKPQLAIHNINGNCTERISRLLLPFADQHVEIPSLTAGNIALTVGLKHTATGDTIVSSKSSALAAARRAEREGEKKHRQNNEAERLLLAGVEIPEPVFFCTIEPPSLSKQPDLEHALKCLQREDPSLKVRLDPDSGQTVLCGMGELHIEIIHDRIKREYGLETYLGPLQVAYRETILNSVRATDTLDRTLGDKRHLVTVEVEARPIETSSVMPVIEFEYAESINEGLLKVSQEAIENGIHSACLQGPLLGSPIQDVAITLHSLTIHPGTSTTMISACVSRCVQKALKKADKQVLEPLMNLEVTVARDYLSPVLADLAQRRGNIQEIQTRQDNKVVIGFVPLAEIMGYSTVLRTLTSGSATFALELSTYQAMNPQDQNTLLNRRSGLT
UniProt P22083, whole entry, looked up: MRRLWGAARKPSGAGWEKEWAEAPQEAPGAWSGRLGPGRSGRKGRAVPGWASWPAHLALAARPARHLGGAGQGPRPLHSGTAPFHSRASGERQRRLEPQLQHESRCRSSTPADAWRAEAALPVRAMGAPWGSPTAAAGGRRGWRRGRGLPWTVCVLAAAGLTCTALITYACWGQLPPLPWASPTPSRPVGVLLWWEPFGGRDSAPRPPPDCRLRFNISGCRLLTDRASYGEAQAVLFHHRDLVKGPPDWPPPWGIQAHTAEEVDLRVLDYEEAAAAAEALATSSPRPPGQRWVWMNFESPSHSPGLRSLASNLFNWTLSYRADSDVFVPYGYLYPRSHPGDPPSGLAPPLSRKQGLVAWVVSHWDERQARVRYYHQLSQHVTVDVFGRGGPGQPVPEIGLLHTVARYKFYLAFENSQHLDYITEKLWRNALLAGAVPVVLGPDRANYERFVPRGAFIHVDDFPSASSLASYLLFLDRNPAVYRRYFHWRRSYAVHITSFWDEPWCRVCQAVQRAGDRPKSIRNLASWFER
UniProt P48507: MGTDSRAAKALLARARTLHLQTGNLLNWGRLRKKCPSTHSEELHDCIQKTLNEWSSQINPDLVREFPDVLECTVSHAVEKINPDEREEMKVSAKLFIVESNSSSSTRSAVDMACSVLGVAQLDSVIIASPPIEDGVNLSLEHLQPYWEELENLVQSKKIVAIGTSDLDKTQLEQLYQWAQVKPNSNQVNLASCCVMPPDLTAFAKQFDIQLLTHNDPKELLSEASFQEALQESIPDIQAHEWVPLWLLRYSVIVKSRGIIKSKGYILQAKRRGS

Assays:
Test in all cases: log2 fold change, soluble protein after heating vs DMSO (PISA); higher = thermal stabilisation; K562 lysate, 10 uM; active = over 0.2 and 3.5 SD of the protein, either way, in both replicates (recomputed)
nilotinib = compound: Cc1cn(-c2cc(NC(=O)c3ccc(C)c(Nc4nccc(-c5cccnc5)n4)c3)cc(C(F)(F)F)c2)cn1 [nilotinib]
Procedure, shortened: (§1)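 Pellets of K562 cells were dounce-homogenised in PBS pH 7.4 with 1 mM MgCl2, and the crude extract was held at 1 mg/mL protein for a 30 min treatment with 10 μM compound. Aliquots were heated for 3 min over 48°C-58°C and pooled before NP-40 was added to 0.5% at 4°C. The supernatant from 21,000xg for 90 min was quantified by TMTpro 16plex LC-MS/MS with channel sums equalised. Values are reported from duplicates as log-two fold change in thermal stability relative to solvent controls.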

[1] = compound: Cc1nc(Nc2n[nH]c3c2CN(C(=O)N[C@H](CN(C)C)c2ccccc2)C3(C)C)c2sccc2n1
Procedure, shortened: as §1

dasatinib = compound: Cc1nc(Nc2ncc(C(=O)Nc3c(C)cccc3Cl)s2)cc(N2CCN(CCO)CC2)n1 [dasatinib]
Procedure, shortened: as §1

[2] = compound: Cc1ncc(-c2ccnc(Nc3ccc(S(C)(=O)=O)cc3)n2)n1C(C)C
Procedure, shortened: as §1

[3] = compound: Cn1cc(-c2ccc3c(c2)CCN3C(=O)Cc2cccc(C(F)(F)F)c2)c2c(N)ncnc21
Procedure, shortened: as §1

quisinostat = compound: Cn1cc(CNCC2CCN(c3ncc(C(=O)NO)cn3)CC2)c2ccccc21 [quisinostat]
Procedure, shortened: as §1

tipifarnib = compound: Cn1cncc1[C@@](N)(c1ccc(Cl)cc1)c1ccc2c(c1)c(-c1cccc(Cl)c1)cc(=O)n2C [tipifarnib]
Procedure, shortened: as §1

[4] = compound: NC(=O)Nc1cc(-c2cccc(F)c2)sc1C(=O)N[C@H]1CCCNC1
Procedure, shortened: as §1

[5] = compound: NC(=O)c1cnc(N[C@@H]2CCCC[C@@H]2N)nc1Nc1cccc(-n2nccn2)c1
Procedure, shortened: as §1

[6] = compound: NC1(c2ccc(-c3nc4ccn5c(=O)[nH]nc5c4cc3-c3ccccc3)cc2)CCC1
Procedure, shortened: as §1

[7] = compound: NCC(=O)Nc1ccc(-n2nc(C(F)(F)F)cc2-c2ccc3c(ccc4ccccc43)c2)cc1
Procedure, shortened: as §1

vorinostat = compound: O=C(CCCCCCC(=O)Nc1ccccc1)NO [vorinostat]
Procedure, shortened: as §1

silmitasertib = compound: O=C(O)c1ccc2c(c1)nc(Nc1cccc(Cl)c1)c1ccncc12 [silmitasertib]
Procedure, shortened: as §1

[8] = compound: O=C1NC(=O)C(c2cnc3ccccn23)=C1c1cn2c3c(cc(F)cc13)CN(C(=O)N1CCCCC1)CC2
Procedure, shortened: as §1

entospletinib = compound: c1cn2cc(-c3ccc4cn[nH]c4c3)nc(Nc3ccc(N4CCOCC4)cc3)c2n1 [entospletinib]
Procedure, shortened: as §1

Measured: log2 fold change

FXR2 (UniProt P51116)
active: vorinostat -0.25
inactive: nilotinib -0.066 | [1] 0.032 | dasatinib -0.027 | [2] 0.003 | [3] 0.074 | quisinostat 0.025 | tipifarnib 0.015 | [4] -0.034 | [5] -0.012 | [6] -0.003 | [7] 0.033 | silmitasertib -0.039 | [8] -0.022 | entospletinib -0.064

GABARAPL1 isoform 2 (UniProt Q9H0R8)
inactive: nilotinib -0.009 | [1] -0.051 | dasatinib -0.056 | [2] 0.013 | [3] 0.016 | quisinostat -0.024 | tipifarnib 0.05 | [4] -0.017 | [5] -0.004 | [6] 0.016 | [7] 0.065 | vorinostat 0.122 | silmitasertib -0.023 | [8] 0.037 | entospletinib 0.03

GABARAP (UniProt O95166)
inactive: nilotinib -0.018 | [1] -0.003 | dasatinib -0.132 | [2] -0.034 | [3] 0.015 | quisinostat -0.043 | tipifarnib -0.065 | [4] 0.023 | [5] 0.042 | [6] -0.036 | [7] -0.02 | vorinostat 0.159 | silmitasertib 0.056 | [8] 0.06 | entospletinib -0.024

Taken from the entries so far (2 entries):
GABARAPL1 isoform 2 (UniProt Q9H0R8)
inactive: nilotinib -0.009 | [1] -0.051 | dasatinib -0.056 | [2] 0.013 | [3] 0.016 | quisinostat -0.024 | tipifarnib 0.05 | [4] -0.017 | [5] -0.004 | [6] 0.016 | [7] 0.065 | vorinostat 0.122 | silmitasertib -0.023 | [8] 0.037 | entospletinib 0.03

GABARAP (UniProt O95166)
inactive: nilotinib -0.018 | [1] -0.003 | dasatinib -0.132 | [2] -0.034 | [3] 0.015 | quisinostat -0.043 | tipifarnib -0.065 | [4] 0.023 | [5] 0.042 | [6] -0.036 | [7] -0.02 | vorinostat 0.159 | silmitasertib 0.056 | [8] 0.06 | entospletinib -0.024

(further entries)

GBA (UniProt P04062)
inactive: nilotinib 0.051 | [1] 0.014 | dasatinib -0.07 | [2] 0.012 | [3] 0.041 | quisinostat -0.051 | tipifarnib -0.093 | [4] -0.012 | [5] 0.067 | [6] -0.012 | [7] 0.056 | vorinostat 0.053 | silmitasertib -0.042 | [8] 0.027 | entospletinib -0.058

FUNDC2 (UniProt Q9BWH2)
inactive: nilotinib 0.043 | [1] -0.026 | dasatinib -0.034 | [2] 0.039 | [3] 0.044 | quisinostat -0.067 | tipifarnib 0.004 | [4] -0.024 | [5] 0 | [6] -0.023 | [7] 0.024 | vorinostat 0.134 | silmitasertib -0.027 | [8] 0.018 | entospletinib 0.029

FUBP3 (UniProt Q96I24)
active: vorinostat -0.325
inactive: nilotinib -0.201 | [1] -0.016 | dasatinib -0.094 | [2] 0.012 | [3] 0.01 | quisinostat -0.029 | tipifarnib -0.009 | [4] 0.043 | [5] -0.005 | [6] 0.032 | [7] -0.001 | silmitasertib -0.032 | [8] 0.047 | entospletinib -0.065

FRYL (UniProt O94915)
inactive: nilotinib -0.046 | [1] 0.037 | dasatinib -0.052 | [2] -0.005 | [3] 0.005 | quisinostat -0.005 | tipifarnib 0.031 | [4] 0.037 | [5] 0.003 | [6] 0.049 | [7] -0.023 | vorinostat -0.079 | silmitasertib 0.003 | [8] -0.005 | entospletinib 0.019

G3BP1 (UniProt Q13283)
inactive: nilotinib -0.046 | [1] -0.014 | dasatinib 0.029 | [2] -0.035 | [3] 0.009 | quisinostat 0.005 | tipifarnib 0.013 | [4] 0.009 | [5] -0.011 | [6] 0.024 | [7] -0.002 | vorinostat 0.043 | silmitasertib 0 | [8] -0.013 | entospletinib -0.018

GALM (UniProt Q96C23)
inactive: nilotinib 0.034 | [1] -0.029 | dasatinib -0.007 | [2] -0.017 | [3] -0.025 | quisinostat -0.012 | tipifarnib -0.009 | [4] 0.005 | [5] 0.011 | [6] -0.004 | [7] 0.019 | vorinostat 0.02 | silmitasertib -0.007 | [8] 0.004 | entospletinib -0.053

FTSJ3 (UniProt Q8IY81)
inactive: nilotinib 0.001 | [1] -0.025 | dasatinib 0.021 | [2] 0.016 | [3] -0.001 | quisinostat 0.066 | tipifarnib -0.046 | [4] 0.047 | [5] 0.033 | [6] -0.015 | [7] -0.034 | vorinostat 0.068 | silmitasertib 0.017 | [8] 0.012 | entospletinib -0.043

FUNDC1 (UniProt Q8IVP5)
inactive: nilotinib -0.083 | [1] 0.101 | dasatinib 0.149 | [2] -0.156 | [3] -0.435 | quisinostat 0.05 | tipifarnib -0.09 | [4] 0.149 | [5] -0.103 | [6] 0.017 | [7] 0.035 | vorinostat 0.113 | silmitasertib 0.003 | [8] 0.098 | entospletinib 0.066

GCAT isoform 2 (UniProt O75600)
inactive: nilotinib 0.036 | [1] -0.044 | dasatinib -0.003 | [2] 0.003 | [3] -0.013 | quisinostat 0.035 | tipifarnib 0.049 | [4] 0.04 | [5] 0.047 | [6] -0.009 | [7] -0.053 | vorinostat -0.071 | silmitasertib 0.038 | [8] -0.014 | entospletinib 0.003

GAGE5 (UniProt Q13069)
inactive: nilotinib -0.039 | [1] 0.023 | dasatinib 0.018 | [2] -0.037 | [3] -0.113 | quisinostat -0.047 | tipifarnib 0.02 | [4] -0.017 | [5] -0.016 | [6] 0.007 | [7] -0.037 | vorinostat 0.145 | silmitasertib -0.012 | [8] 0.031 | entospletinib -0.201

G3BP2 (UniProt Q9UN86)
inactive: nilotinib -0.033 | [1] -0.02 | dasatinib -0.007 | [2] -0.01 | [3] 0.009 | quisinostat 0.017 | tipifarnib 0.012 | [4] 0.002 | [5] 0.01 | [6] 0.063 | [7] 0.022 | vorinostat 0.006 | silmitasertib -0.006 | [8] -0.004 | entospletinib -0.001

FUCA2 (UniProt Q9BTY2)
inactive: nilotinib 0.029 | [1] -0.024 | dasatinib 0.012 | [2] 0.007 | [3] 0 | quisinostat 0.026 | tipifarnib 0 | [4] -0.016 | [5] 0.001 | [6] -0.004 | [7] -0.018 | vorinostat 0.127 | silmitasertib -0.015 | [8] -0.012 | entospletinib 0.029

GATC (UniProt O43716)
inactive: nilotinib 0.053 | [1] -0.045 | dasatinib 0.043 | [2] 0.077 | [3] -0.02 | quisinostat 0.189 | tipifarnib 0.115 | [4] -0.117 | [5] -0.049 | [6] 0.007 | [7] -0.066 | vorinostat 0.069 | silmitasertib 0.047 | [8] -0.086 | entospletinib -0.154

GARS1 (UniProt P41250)
inactive: nilotinib 0.02 | [1] -0.039 | dasatinib 0.014 | [2] 0.008 | [3] 0.006 | quisinostat 0.035 | tipifarnib -0.015 | [4] -0.026 | [5] 0.012 | [6] 0.022 | [7] 0.016 | vorinostat 0.133 | silmitasertib 0 | [8] -0.019 | entospletinib -0.007

GFM2 (UniProt Q969S9)
inactive: nilotinib -0.077 | [1] 0.055 | dasatinib -0.087 | [2] 0.085 | [3] 0.036 | quisinostat 0.112 | tipifarnib 0.005 | [4] -0.033 | [5] 0.06 | [6] -0.116 | [7] 0.055 | vorinostat -0.153 | silmitasertib 0.085 | [8] 0.065 | entospletinib -0.095

FUT4 (UniProt P22083)
inactive: nilotinib -0.2 | [1] -0.117 | dasatinib 0.142 | [2] 0.068 | [3] -0.089 | quisinostat -0.065 | tipifarnib 0.046 | [4] 0.157 | [8] -0.194 | entospletinib 0.203

GCLM (UniProt P48507)
active: vorinostat -0.277
inactive: nilotinib -0.03 | [1] 0.016 | dasatinib -0.033 | [2] 0.013 | [3] 0.027 | quisinostat 0.016 | tipifarnib 0.007 | [4] 0 | [5] -0.005 | [6] -0.005 | [7] 0.007 | silmitasertib -0.013 | [8] 0.032 | entospletinib 0.021

GATA1 (UniProt P15976)
inactive: nilotinib -0.087 | [1] -0.098 | dasatinib -0.075 | [2] 0.049 | [3] -0.003 | quisinostat -0.041 | tipifarnib -0.07 | [4] 0.111 | [5] -0.037 | [6] -0.013 | vorinostat -0.176 | silmitasertib 0.017 | [8] 0.045
